Earlier results as cited in patent US20220184070A1, “LOW-DOSE TRIPLE COMBINATION FORMULATION” (The George Institute for Global Health, priority 2019, published 2022).
At least one compound was matched to its structure with a doubt left. Marks after values point to notes of the source that are not given here.

Tested on: plasma glucose
Conditions: published studies

Structure (SMILES): C[C@H]1O[C@H](O[C@H]2[C@H](O)[C@@H](O)[C@@H](O[C@H]3[C@H](O)[C@@H](O)C(O)O[C@@H]3CO)O[C@@H]2CO)[C@H](O)[C@@H](O)[C@@H]1N[C@H]1C=C(CO)[C@@H](O)[C@H](O)[C@H]1O (some centres unmarked) [Acarbose]
- Percentage change in plasma glucose from pre-prandial adjusted for placebo, at 2 h PPG (single dose 100 mg monotherapy): −5.3%
- Percentage change in plasma glucose from pre-prandial adjusted for placebo, Maximum (single dose 100 mg, maximum achieved at 1 h post-prandial): −24.5^b %
